Measured values reported in the supplement of paper PMC10849652.
Some of the results follow.

The chains behind the UniProt entries cited, without tags or fusion partners. Where a name states a change or a piece, a line headed by the entry shows the natural chain unless it says otherwise.
UniProt P17980, whole entry, looked up: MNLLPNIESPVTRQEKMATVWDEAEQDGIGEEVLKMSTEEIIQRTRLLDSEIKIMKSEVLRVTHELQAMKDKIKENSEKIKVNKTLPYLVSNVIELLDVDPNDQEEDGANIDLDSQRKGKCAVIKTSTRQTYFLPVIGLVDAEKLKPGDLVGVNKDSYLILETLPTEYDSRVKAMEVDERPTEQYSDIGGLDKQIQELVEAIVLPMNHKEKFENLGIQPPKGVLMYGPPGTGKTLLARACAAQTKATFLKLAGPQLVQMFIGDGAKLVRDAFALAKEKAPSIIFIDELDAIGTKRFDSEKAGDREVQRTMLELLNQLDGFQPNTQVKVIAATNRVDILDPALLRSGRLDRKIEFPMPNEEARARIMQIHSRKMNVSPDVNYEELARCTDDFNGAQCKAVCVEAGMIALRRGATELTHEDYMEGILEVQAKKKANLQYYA
UniProt O75475: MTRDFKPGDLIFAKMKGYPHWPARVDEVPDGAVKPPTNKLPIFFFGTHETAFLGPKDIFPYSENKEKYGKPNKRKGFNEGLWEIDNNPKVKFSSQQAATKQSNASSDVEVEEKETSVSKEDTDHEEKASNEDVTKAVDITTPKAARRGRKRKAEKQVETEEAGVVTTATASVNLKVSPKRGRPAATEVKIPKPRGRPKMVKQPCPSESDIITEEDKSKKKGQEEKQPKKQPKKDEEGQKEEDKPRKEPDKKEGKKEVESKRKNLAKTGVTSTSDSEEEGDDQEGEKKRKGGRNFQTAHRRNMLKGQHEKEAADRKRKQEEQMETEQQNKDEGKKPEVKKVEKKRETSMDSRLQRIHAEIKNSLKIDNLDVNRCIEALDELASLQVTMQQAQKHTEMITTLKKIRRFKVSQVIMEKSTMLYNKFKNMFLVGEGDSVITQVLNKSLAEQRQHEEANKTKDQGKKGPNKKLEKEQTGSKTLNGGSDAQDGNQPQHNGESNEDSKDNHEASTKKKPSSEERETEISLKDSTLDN
UniProt O95456: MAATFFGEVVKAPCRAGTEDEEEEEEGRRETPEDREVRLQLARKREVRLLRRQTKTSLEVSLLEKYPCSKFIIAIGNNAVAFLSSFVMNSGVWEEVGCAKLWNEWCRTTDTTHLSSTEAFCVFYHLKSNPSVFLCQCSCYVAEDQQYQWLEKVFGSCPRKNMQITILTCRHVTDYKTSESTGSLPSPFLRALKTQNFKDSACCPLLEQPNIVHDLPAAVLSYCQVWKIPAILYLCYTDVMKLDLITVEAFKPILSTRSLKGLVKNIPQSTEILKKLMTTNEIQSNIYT
UniProt P43686, whole entry, looked up: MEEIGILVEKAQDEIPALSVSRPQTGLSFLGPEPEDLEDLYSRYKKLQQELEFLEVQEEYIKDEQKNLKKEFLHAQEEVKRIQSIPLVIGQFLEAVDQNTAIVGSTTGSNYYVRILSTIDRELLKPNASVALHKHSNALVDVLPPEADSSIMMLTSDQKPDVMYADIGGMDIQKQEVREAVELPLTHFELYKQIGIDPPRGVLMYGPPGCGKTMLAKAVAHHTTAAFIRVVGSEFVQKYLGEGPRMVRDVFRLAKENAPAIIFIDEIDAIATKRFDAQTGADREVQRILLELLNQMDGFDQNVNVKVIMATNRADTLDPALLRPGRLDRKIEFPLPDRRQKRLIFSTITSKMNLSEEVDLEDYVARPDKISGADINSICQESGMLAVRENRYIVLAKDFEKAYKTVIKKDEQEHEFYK
UniProt Q9BZE2: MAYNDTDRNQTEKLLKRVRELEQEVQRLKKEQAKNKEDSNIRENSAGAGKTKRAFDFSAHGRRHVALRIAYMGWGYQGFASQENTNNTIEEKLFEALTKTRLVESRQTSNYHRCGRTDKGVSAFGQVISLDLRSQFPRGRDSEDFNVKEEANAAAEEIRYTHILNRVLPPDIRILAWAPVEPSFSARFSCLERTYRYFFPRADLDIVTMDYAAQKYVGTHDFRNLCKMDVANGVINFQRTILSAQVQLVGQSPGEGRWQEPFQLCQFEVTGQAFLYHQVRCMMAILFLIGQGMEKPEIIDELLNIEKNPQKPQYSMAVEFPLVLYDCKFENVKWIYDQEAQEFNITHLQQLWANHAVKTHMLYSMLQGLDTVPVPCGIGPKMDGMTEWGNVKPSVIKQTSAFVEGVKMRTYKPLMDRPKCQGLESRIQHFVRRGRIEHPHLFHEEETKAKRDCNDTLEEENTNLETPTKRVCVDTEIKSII
UniProt P25788: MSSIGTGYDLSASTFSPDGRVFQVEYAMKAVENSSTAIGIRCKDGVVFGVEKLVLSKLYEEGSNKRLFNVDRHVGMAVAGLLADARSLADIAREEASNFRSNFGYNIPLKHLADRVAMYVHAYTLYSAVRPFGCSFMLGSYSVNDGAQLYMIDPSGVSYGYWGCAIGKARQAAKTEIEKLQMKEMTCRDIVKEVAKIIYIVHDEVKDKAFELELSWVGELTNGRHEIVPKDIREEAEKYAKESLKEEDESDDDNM
UniProt Q13332: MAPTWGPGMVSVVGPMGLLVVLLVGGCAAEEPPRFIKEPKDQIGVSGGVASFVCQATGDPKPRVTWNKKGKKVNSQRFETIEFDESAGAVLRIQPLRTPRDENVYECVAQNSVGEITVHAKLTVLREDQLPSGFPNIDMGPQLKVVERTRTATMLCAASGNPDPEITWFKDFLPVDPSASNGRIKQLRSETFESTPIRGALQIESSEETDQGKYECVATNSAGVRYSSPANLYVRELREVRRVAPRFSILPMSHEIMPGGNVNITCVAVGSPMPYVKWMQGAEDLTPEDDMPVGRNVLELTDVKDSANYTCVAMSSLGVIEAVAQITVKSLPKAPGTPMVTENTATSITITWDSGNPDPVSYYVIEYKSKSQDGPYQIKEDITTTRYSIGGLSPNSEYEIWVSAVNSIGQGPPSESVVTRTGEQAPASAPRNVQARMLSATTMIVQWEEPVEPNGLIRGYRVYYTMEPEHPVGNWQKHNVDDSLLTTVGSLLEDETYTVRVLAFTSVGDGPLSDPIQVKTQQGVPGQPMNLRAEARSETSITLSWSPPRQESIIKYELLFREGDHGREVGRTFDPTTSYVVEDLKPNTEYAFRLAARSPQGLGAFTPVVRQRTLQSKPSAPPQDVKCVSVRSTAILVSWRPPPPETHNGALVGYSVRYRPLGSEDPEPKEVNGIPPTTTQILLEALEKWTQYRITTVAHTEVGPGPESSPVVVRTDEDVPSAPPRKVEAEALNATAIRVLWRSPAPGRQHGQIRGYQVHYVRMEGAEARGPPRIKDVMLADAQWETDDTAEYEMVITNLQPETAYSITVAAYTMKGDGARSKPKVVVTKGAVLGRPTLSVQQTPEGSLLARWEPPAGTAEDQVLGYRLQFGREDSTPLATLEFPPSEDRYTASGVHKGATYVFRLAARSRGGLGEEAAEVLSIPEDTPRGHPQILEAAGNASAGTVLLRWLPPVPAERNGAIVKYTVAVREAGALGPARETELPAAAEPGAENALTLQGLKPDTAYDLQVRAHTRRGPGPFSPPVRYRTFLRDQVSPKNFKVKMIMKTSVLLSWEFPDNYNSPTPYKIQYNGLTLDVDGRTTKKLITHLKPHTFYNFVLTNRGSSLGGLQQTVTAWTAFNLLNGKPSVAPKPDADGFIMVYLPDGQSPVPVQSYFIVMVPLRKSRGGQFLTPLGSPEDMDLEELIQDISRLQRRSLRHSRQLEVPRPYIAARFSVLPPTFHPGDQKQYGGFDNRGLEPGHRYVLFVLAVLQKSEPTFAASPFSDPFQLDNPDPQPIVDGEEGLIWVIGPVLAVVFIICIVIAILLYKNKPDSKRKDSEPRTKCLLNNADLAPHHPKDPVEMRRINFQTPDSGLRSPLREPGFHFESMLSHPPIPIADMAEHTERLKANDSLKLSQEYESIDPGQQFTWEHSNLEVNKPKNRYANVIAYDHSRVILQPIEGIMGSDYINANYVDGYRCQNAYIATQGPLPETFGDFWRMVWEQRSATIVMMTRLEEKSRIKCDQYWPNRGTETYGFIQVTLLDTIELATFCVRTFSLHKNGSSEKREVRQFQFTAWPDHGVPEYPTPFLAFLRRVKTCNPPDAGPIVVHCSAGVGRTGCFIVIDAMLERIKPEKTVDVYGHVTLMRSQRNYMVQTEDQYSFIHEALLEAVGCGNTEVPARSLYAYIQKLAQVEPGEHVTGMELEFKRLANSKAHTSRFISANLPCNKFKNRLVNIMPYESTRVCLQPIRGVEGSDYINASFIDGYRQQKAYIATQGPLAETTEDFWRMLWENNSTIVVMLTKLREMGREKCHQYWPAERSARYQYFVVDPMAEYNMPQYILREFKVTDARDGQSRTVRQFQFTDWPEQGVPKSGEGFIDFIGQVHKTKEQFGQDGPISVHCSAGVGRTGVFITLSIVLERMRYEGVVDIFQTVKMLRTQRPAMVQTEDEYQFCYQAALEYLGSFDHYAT
UniProt Q5JSZ5: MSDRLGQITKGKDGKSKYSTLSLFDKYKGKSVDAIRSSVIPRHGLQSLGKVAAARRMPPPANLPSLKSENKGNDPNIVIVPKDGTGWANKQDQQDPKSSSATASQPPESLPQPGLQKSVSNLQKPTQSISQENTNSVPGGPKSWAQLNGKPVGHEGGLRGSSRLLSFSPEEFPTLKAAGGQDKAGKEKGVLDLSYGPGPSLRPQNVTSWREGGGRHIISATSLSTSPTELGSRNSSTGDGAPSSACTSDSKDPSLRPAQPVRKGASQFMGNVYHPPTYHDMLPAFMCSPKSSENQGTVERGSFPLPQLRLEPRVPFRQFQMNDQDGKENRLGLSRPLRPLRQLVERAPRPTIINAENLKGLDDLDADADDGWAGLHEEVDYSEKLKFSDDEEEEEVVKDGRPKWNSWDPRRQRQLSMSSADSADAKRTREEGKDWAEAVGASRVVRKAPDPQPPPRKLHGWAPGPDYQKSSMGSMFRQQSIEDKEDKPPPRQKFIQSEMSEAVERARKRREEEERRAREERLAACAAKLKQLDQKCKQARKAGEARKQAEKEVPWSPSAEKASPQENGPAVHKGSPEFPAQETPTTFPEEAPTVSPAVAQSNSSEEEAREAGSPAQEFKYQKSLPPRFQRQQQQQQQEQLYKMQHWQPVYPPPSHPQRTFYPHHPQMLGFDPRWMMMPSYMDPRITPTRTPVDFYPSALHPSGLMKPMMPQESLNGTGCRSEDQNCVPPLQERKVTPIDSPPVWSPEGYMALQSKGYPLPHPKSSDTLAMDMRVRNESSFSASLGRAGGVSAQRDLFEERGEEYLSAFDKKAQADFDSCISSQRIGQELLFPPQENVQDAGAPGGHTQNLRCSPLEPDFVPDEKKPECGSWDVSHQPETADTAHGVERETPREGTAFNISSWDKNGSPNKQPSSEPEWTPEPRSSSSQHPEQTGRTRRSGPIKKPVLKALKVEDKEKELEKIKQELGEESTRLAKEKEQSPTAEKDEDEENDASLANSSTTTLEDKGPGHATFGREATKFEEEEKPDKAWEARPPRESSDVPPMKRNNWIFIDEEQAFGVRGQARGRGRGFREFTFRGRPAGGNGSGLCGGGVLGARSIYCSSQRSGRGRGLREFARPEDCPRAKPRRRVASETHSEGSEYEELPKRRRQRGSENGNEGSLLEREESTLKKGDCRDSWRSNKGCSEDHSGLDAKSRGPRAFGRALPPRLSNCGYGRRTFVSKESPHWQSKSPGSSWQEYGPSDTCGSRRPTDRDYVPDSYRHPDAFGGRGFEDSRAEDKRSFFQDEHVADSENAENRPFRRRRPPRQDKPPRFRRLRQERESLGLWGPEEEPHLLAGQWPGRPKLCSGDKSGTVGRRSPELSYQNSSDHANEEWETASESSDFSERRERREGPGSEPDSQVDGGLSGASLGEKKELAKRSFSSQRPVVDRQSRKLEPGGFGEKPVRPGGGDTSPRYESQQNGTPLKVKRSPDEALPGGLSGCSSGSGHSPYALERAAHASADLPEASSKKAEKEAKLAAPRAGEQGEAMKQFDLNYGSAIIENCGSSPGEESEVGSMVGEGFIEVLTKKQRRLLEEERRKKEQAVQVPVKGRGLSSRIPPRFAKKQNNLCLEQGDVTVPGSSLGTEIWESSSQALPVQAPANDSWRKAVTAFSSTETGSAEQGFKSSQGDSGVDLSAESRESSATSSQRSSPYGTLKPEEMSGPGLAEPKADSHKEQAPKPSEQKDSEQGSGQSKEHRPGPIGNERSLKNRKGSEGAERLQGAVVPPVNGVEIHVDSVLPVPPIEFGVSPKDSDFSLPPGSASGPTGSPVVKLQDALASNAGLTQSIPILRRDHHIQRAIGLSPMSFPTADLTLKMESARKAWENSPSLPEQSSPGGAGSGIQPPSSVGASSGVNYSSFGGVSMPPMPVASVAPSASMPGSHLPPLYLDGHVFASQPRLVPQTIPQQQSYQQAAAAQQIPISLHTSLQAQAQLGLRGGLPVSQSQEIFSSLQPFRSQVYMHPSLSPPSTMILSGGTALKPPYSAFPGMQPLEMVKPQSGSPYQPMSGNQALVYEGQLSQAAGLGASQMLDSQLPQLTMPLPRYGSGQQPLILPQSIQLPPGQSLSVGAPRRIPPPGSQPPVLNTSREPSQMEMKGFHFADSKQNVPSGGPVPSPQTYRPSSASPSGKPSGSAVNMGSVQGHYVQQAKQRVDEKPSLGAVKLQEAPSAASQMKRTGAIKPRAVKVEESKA

Tests used:
Experiment in all cases: log2 fold change, soluble protein after heating vs DMSO (PISA); higher = thermal stabilisation; K562 lysate, 10 uM; active = over 0.2 and 3.5 SD of the protein, either way, in both replicates (recomputed)
ibrutinib = compound: C=CC(=O)N1CCC[C@@H](n2nc(-c3ccc(Oc4ccccc4)cc3)c3c(N)ncnc32)C1 [ibrutinib]
Outline: (§1)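 A 30 min treatment with 10 μM compound was applied to crude K562 extract at 1 mg/mL protein in PBS pH 7.4 with 1 mM MgCl2. Heating for 3 min spanned 48°C-58°C, after which aliquots were pooled, adjusted to 0.5% NP-40 at 4°C and spun at 21,000xg for 90 min. TMTpro 16plex LC-MS/MS of the supernatant, with channel sums equalised, gave values recorded as log-two fold change in thermal stability against solvent controls, from duplicates.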

[1] = compound: CC(=O)c1cnc2ccc(-c3cc(Cl)c(O)c(Cl)c3)nc2c1N[C@H]1CC[C@H](CN(C)C)CC1
Outline: as §1

ralimetinib = compound: CC(C)(C)Cn1c(N)nc2ccc(-c3[nH]c(C(C)(C)C)nc3-c3ccc(F)cc3)nc21 [ralimetinib]
Outline: as §1

[2] = compound: CC(C)(O)CC(=O)NCCn1ccc2ncnc(Nc3ccc(Oc4cccc(C(F)(F)F)c4)c(Cl)c3)c21
Outline: as §1

[3] = compound: CC(C)C1=C2N=C(C=C(N2N=C1)NCC3=CC=CC=C3)NCCCCCCN
Outline: as §1

[4] = compound: CC1=C(C(CC(=O)N1)C2=CC=C(C=C2)C(F)(F)F)C(=O)NC3=C(C=C4C(=C3)C=NN4)F
Outline: as §1

[5] = compound: CC1=C(C2=C(C=C1)C(=O)C3=CC=CC=C3N2CCCN)C
Outline: as §1

[6] = compound: CC1=C(C=C(C=C1)NC(=O)C2=CC(=CC=C2)C(C)(C)C#N)NC3=CC4=C(C=C3)N=CN(C4=O)C
Outline: as §1

[7] = compound: CC1=C(C=C(C=C1)NC(=O)C2=CC(=CC=C2)N(C)C)NC(=O)C3=CC=C(C=C3)O
Outline: as §1

[8] = compound: CC1=CC=C(C=C1)SC2=C3C=C(SC3=CN=C2)C(=O)N
Outline: as §1

Target	log2 fold change (ibrutinib)	log2 fold change [1]	log2 fold change (ralimetinib)	log2 fold change [2]	log2 fold change [3]	log2 fold change [4]	log2 fold change [5]	log2 fold change [6]	log2 fold change [7]	log2 fold change [8]
PTPN1 (UniProt P18031)	inactive: -0.003	inactive: -0.024	inactive: 0.018	inactive: 0.024	inactive: 0.006	inactive: -0.005	inactive: -0.002	inactive: 0.006	inactive: 0.049	inactive: 0.016
PWP1 (UniProt Q13610)	inactive: 0.022	inactive: -0.017	inactive: 0.012	inactive: -0.011	inactive: -0.02	inactive: -0.053	inactive: -0.025	inactive: -0.009	inactive: 0.032	inactive: -0.001
PSMC3 (UniProt P17980)	inactive: 0.009	inactive: -0.003	inactive: 0.017	inactive: 0.008	inactive: 0.003	inactive: -0.001	inactive: -0.006	inactive: -0.013	inactive: 0.002	inactive: 0.009
PTPMT1 (UniProt Q8WUK0)	inactive: -0.033	inactive: 0.048	inactive: -0.105	inactive: 0.1	inactive: 0.029	inactive: -0.067	inactive: -0.025	inactive: 0.041	inactive: 0.049	inactive: 0.055
PTER (UniProt Q96BW5)	inactive: 0.014	inactive: 0.034	inactive: -0.016	inactive: -0.052	inactive: -0.003	inactive: -0.026	inactive: -0.006	inactive: -0.006	inactive: -0.011	inactive: -0.016
PTMS (UniProt P20962)	inactive: 0.025	inactive: -0.015	inactive: 0.003	inactive: 0.004	inactive: 0.02	inactive: -0.012	inactive: -0.017	inactive: 0.014	inactive: -0.015	inactive: -0.038
PSIP1 (UniProt O75475)	inactive: -0.045	inactive: -0.002	inactive: -0.019	inactive: -0.027	inactive: 0.001	inactive: 0.034	inactive: -0.034	inactive: 0.016	inactive: 0.005	inactive: 0.01
PSME4 (UniProt Q14997)	inactive: -0.01	inactive: -0.014	inactive: 0.027	inactive: -0.02	inactive: 0.007	inactive: -0.011	inactive: 0.019	inactive: 0.035	inactive: 0.046	inactive: 0.006
PSMG1 (UniProt O95456)	inactive: -0.028	inactive: 0.019	inactive: -0.032	inactive: -0.037	inactive: -0.001	inactive: 0.014	inactive: 0.021	inactive: 0.005	inactive: -0.024	inactive: -0.027
PRUNE1 (UniProt Q86TP1)	inactive: 0.073	inactive: 0.025	inactive: 0.007	inactive: -0.037	inactive: -0.019	inactive: -0.019	inactive: -0.015	inactive: 0.018	inactive: 0.027	inactive: 0.003
PSME2 (UniProt Q9UL46)	inactive: -0.004	inactive: -0.01	inactive: 0.025	inactive: -0.036	inactive: -0.004	inactive: -0.007	inactive: 0	inactive: 0.004	inactive: 0.025	inactive: -0.023
PSMC4 (UniProt P43686)	inactive: -0.016	inactive: 0.003	inactive: 0.024	inactive: 0	inactive: 0.003	inactive: -0.017	inactive: 0	inactive: -0.003	inactive: -0.001	inactive: 0.019
PSMA2 (UniProt P25787)	inactive: -0.009	inactive: 0.006	inactive: -0.013	inactive: -0.004	inactive: 0.005	inactive: -0.028	inactive: 0.008	inactive: 0.007	inactive: 0.009	inactive: 0.008
PSMB1 (UniProt P20618)	inactive: -0.004	inactive: -0.003	inactive: 0.004	inactive: -0.035	inactive: -0.01	inactive: 0.017	inactive: -0.019	inactive: 0.008	inactive: 0.008	inactive: -0.034
PWP2 (UniProt Q15269)	inactive: 0.003	inactive: -0.021	inactive: 0.048	inactive: 0.027	inactive: 0.009	inactive: 0.037	inactive: -0.014	inactive: -0.035	inactive: 0.018	inactive: 0.015
PUS3 (UniProt Q9BZE2)	inactive: -0.034	inactive: -0.025	inactive: 0.05	inactive: 0.094	inactive: -0.046	inactive: 0.045	inactive: 0.136	inactive: -0.12	inactive: -0.006	inactive: 0
PSMA3 (UniProt P25788)	inactive: 0.036	inactive: 0.011	inactive: 0	inactive: 0.008	inactive: -0.017	inactive: -0.023	inactive: -0.047	inactive: -0.015	inactive: -0.003	inactive: 0.006
PSMG4 isoform 2 (UniProt Q5JS54)	inactive: -0.061	inactive: -0.005	inactive: 0.029	inactive: 0.023	inactive: -0.026	inactive: 0.041	inactive: 0.001	inactive: 0.068	inactive: 0.04	inactive: 0.026
PVR (UniProt P15151)	inactive: 0.073	inactive: -0.027	inactive: 0.032	inactive: -0.029	inactive: -0.056	inactive: -0.06	inactive: -0.009	inactive: 0.004	inactive: -0.006	inactive: -0.227
PTPRS isoform 3 (UniProt Q13332)	inactive: 0.051	inactive: -0.019	inactive: 0.025	inactive: -0.002	inactive: -0.015	inactive: 0.025	inactive: -0.031	inactive: 0.039	inactive: 0.015	inactive: 0.019
PUS7 isoform 2 (UniProt Q96PZ0)	inactive: 0.015	inactive: -0.011	inactive: 0	inactive: -0.011	inactive: 0.003	inactive: -0.017	inactive: -0.03	inactive: 0.011	inactive: -0.005	inactive: -0.003
PTEN isoform 2 (UniProt P60484)	inactive: 0.05	inactive: 0.075	inactive: -0.049	inactive: 0.023	inactive: 0.074	inactive: 0.009	inactive: 0.094	inactive: 0.087	inactive: -0.018	inactive: -0.029
PUS10 (UniProt Q3MIT2)	inactive: -0.048	inactive: 0.007	inactive: 0.051	inactive: 0.015	inactive: 0.009	inactive: 0.037	inactive: -0.027	inactive: 0.022	inactive: -0.009	inactive: -0.027
PRRC2B (UniProt Q5JSZ5)	inactive: 0.083	inactive: 0.027	inactive: -0.019	inactive: -0.012	inactive: -0.017	inactive: 0.03	inactive: 0.034	inactive: -0.189	inactive: -0.021	inactive: -0.011
PTK2B (UniProt Q14289)	inactive: 0.014	inactive: 0.073	inactive: -0.04	inactive: -0.072	inactive: -0.005	inactive: -0.039	inactive: -0.001	inactive: -0.049	inactive: 0.013	inactive: -0.022
PTP4A1 (UniProt Q93096)	inactive: 0.011	inactive: 0.027	inactive: 0.015	inactive: -0.071	inactive: -0.031	inactive: -0.113	inactive: -0.007	inactive: -0.012	inactive: -0.048	inactive: 0
PRXL2B isoform 3 (UniProt Q8TBF2)	inactive: 0.064	inactive: 0.036	inactive: -0.043	inactive: -0.036	inactive: 0.057	inactive: 0.052	inactive: -0.032	inactive: 0.071	inactive: 0.017	inactive: -0.004
PUM1 isoform 3 (UniProt Q14671)	inactive: -0.034	inactive: 0.009	inactive: 0.003	inactive: -0.031	inactive: -0.035	inactive: 0.032	inactive: 0.044	active: -0.435	inactive: 0.049	inactive: 0.014
PRRC2C isoform 7 (UniProt Q9Y520)	inactive: 0.023	inactive: -0.016	inactive: -0.006	inactive: -0.018	inactive: 0.002	inactive: 0.025	inactive: -0.032	inactive: -0.059	inactive: 0.011	inactive: -0.021
PTGFRN (UniProt Q9P2B2)	inactive: -0.008	inactive: -0.008	inactive: -0.004	inactive: -0.041	inactive: -0.063	inactive: -0.005	inactive: 0.001	inactive: 0.015	inactive: -0.018	inactive: 0.001

Quoted from the listing:
log2 fold change [6] with PSMC4 (UniProt P43686) reads inactive: -0.003
log2 fold change [7] with PTMS (UniProt P20962) reads inactive: -0.015

Shown as a markdown table: part of the list above

| Target | log2 fold change (ibrutinib) | log2 fold change [1] | log2 fold change (ralimetinib) | log2 fold change [2] | log2 fold change [3] | log2 fold change [4] | log2 fold change [5] | log2 fold change [6] | log2 fold change [7] | log2 fold change [8] |
| --- | --- | --- | --- | --- | --- | --- | --- | --- | --- | --- |
| PVR (UniProt P15151) | inactive: 0.073 | inactive: -0.027 | inactive: 0.032 | inactive: -0.029 | inactive: -0.056 | inactive: -0.06 | inactive: -0.009 | inactive: 0.004 | inactive: -0.006 | inactive: -0.227 |
| PTPRS isoform 3 (UniProt Q13332) | inactive: 0.051 | inactive: -0.019 | inactive: 0.025 | inactive: -0.002 | inactive: -0.015 | inactive: 0.025 | inactive: -0.031 | inactive: 0.039 | inactive: 0.015 | inactive: 0.019 |
